From publication PMC2940742
These are yes or no findings as the source states them, for the method shown. In cells and extracts the contact can be indirect. Binding can be weak; no strength is given.

Target: SGT1, endogenous in wild type Col-0 plants (Arabidopsis (endogenous in Col-0 plants))
Experiment: co-IP; total protein extract of 12-day-old wild type Col-0 seedlings; 50 mM Tris-HCl pH 7.5, 10 mM MgCl2, 150 mM NaCl, 0.1% NP40; IP with anti-SGT1b or anti-MPK4 and Protein A agarose at 4°C; blots with anti-SRFR1, anti-SGT1, anti-MPK4

binding: binds
B1: SRFR1, endogenous in wild type Col-0 plants (protein, UniProt F4JS25-1 1-1052)
chain: MATATATSERFELAKHCSSRNWSKAIRVLDSLLAKESSILDICNRAFCYNQLELHKHVIKDCDKALLLEPFAIQAFILKGRALLALGRKQEAVLVLEQGYKSALQQTADVKQLLELEELLKDARREIDGILKSHATESPQETPAYHSEKSDEKSDKLDNHESGASSNGNSHESSSELGEQSKIVSFSKVASKASKQSDGNSDLCNGSVYKEKENGKCGSQINGYYESCKPCNGSDLHDNLAESSDRFGELSINGNKISIKSSKMSHKAEARCGISDESRKNKKYTIARISGTHSISVDFRLSRGIAQVNEGNYTKAISIFDKVLKEEPTYPEALIGRGTAYAFQRELESAIADFTKAIQSNPAASEAWKRRGQARAALGEYVEAVEDLTKALVFEPNSPDVLHERGIVNFKSKDFTAAVKDLSICLKQEKDNKSAYTYLGLAFASLGEYKKAEEAHLKSIQLDSNYLEAWLHLAQFYQELADHCKALECIEQVLQVDNRVWKAYHLRGLVFHGLGEHRKAIQELSIGLSIENTIECLYLRGSCYHAVGEYRDAVKDYDATVDVELDAVEKFVLQCLAFYQKELALYTASKVSSEFLCFDIDGDIDPMFKEYWCKRLHPKNVCEKVYRQPPLRESLKKGKLKKQDLAITKQKANILRFADLIGKRIQYDCPGFLPNKRQHRMAGLAVIEIAQKVSKAWRIEWRNSTKGTTKNGKKNRRRERTNILSQNRGGAGCSSSSFSETSTGYASLEDRSSGRSILSWQDVYSPAVRWRQISEPCDPVVWVNKLSEEFNSGFGSHTPMVLGQAKVVRYFPNYERTLTLAKSIIKDKLSVRSKKDKVIDLSKDEKIEKIMRAETCDELHNIVGEDFWVATWCDSTGSEGKRLEGTRITCIQKPGRLGYDFSIRTPCTPARWSDFDEEMTSAWEALCTAYCGENYGSTELDALETVRDAILRMTYYWYNFMPLARGTAVTGFVVLLGLLLAANMEFTETIPKGLQIDWEAILNVEPGSFVDSVKSWLYPSLKINTSWRDHTEISSAFSTTGAVVAALSTYND
